Measurements taken from the supplement of paper PMC3334620.
Whole data set: some 33,000 sequences, median “E-score (-0.5 to 0.5)” near -8e-05, cut for the highest 2% near 0.23. The list shows a part of the results.

Biological target: T1, Nrg2 (UniProt P38082)
T1 sequence: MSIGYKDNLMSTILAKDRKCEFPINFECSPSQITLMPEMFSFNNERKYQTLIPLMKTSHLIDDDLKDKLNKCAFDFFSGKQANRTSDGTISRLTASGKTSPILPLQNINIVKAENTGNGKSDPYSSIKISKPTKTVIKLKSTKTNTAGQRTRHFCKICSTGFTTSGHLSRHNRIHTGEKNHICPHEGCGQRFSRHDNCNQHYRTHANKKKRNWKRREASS
Experiment: PBM E-score (8-mer binding enrichment) (E-score (-0.5 to 0.5)); higher = stronger / more preferred TF binding
Details: protein concentration: 100 nM; construct: GST-full length
Experimental: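 Universal 'all 10-mer' protein binding microarrays (Agilent AMADID 015681) probed with GST-tagged S. cerevisiae TFs (full-length or DBD) made by in vitro transcription/translation (PURExpress), about 100-200 nM. Bound TF was detected with fluorescent anti-GST. Each ungapped 8-mer (which stands for itself and its reverse complement) is scored by the PBM enrichment score (E-score), a modified Wilcoxon-Mann-Whitney statistic from -0.5 to +0.5, computed with the Universal PBM Analysis Suite. Scale: above 0.35 generally sequence-specific binding.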

Sequence | PBM E-score
CATCTTAA | 0.251
GCACCTCA | 0.0688
AAATGACG | 0.167
CTCAACGC | 0.0992
AACCTGAG | 0.0374
CGAGGTAG | -0.127
AGTGCATC | -0.00114
ACAACCCA | 0.106
GTAGTTGA | 0.143
CGTCGACG | 0.114
AAGGCGGA | -0.0742
AAGGGAGG | -0.19
ACGTTATA | 0.00956
AGTGCACC | 0.0907
ACACACAG | 0.208
CCAGGATA | 0.0393
CATGCGGA | -0.173
ACAACGGC | 0.0869
GTCTACTA | 0.0788
CAGCACGC | -0.15
CGCACCCA | -0.142
ATGATGAG | 0.0874
CATGAGAG | 0.118
ACCCTCGC | 0.144
ATACAATA | 0.239

Sequence | PBM E-score
GTGGATCA | -0.132
ACACCTCC | -0.258
AGGCGTTG | 0.0253
CTGATGAC | 0.0398
ACCAATCT | 0.0269
GCGGATGA | 0.11
CTATCGCC | -0.172
AAGCAACT | 0.14
GGAATTTA | 0.103
CGGTGATA | -0.0567
AACCTCCC | -0.147
CGCTAATC | -0.0129
CCGTTAGC | -0.196
CAGATTCC | -0.0915
AAAAAACG | -0.0569
AAATCGTG | 0.177
GTGAAAGA | 0.0754
TACCGCGA | 0.0041
AGTAGTTG | 0.253
CTGACCTC | -0.164
CACCTCAC | 0.0319
AGGCAGCG | -0.0983
ATCAGAAG | 0.135
GCCGGACC | -0.0451
CTTGTATC | 0.0489

Sequence | PBM E-score
TGAGTGAA | 0.0506
GATGTCCA | -0.0309
GAGATACC | 0.127
CAAGGAAG | 0.017
ATCCCTTG | 0.111
GTAGGGCA | -0.141
GGGTCTAC | 0.203
GGTCAGGA | 0.244
CTGTTAGA | -0.16
CTTCCTAC | -0.36
GGATAGCA | 0.0845
CTAACTTA | 0.0931
GCACCTGC | -0.145
GAACCAGC | 0.0888
ATAGTGTG | 0.116
CACGGATC | -0.0332
ACCTAAAT | 0.0332
ATCGCAGA | -0.0922
ACTAAGCG | 0.0152
ACCCTAAC | 0.116
GTGAGTGA | -0.0223
GACTACAC | 0.0721
GCCAAAGC | -0.121
ATCGTTTG | 0.0816
AATGATAG | 0.219

Sequence | PBM E-score
TACCGACA | 0.0923
AAATGGTC | 0.0735
CGCATTCC | -0.225
AAAGCCAT | 0.0845
ATCTCAGC | -0.00473
AACATCAG | 0.083
CACAGGGC | 0.179
CACGGCAA | 0.0887
CGTGCCCA | -0.124
TACGGAAA | -0.0442
ACGACACT | -0.0895
AGCCCATC | -0.0428
ACAGTCGC | -0.211
AGGCTCGA | -0.0105
GGGCAGCA | -0.159
CCGACCAA | 0.114
CCACTCTC | -0.0679
GTTAATAA | 0.128
CTGTCGAC | -0.0435
GCAAGACA | -0.0471
TGGCCCAA | 0.106
CCACGGCG | -0.0563
CCGGTGGA | -0.0862
AGTGATTG | 0.131
ACGAGTGG | -0.11

Sequence | PBM E-score
ACGTCGTA | -0.229
ATTCTAGA | -0.141
AAGGTAGG | 0.00624
TGGTGAAA | -0.0676
CAGGTCAA | 0.0245
GGACGCCC | -0.241
AACGGTCT | -0.127
AAACACTG | 0.0488
CGATCATA | 0.111
GAGGAAAA | -0.0374
CCAGGTCG | -0.0366
TAAAACCA | -0.0629
GCATGCAA | 0.161
ACGCGCTA | 0.0075
ATCTGCGC | 0.0656
CAGGCAAG | -0.0417
CTTCAGTA | 0.0263
CGCCGCCC | 0.0213
CTGCAGCA | 0.15
CATGGATC | -0.00475
AGTATGCC | 0.0279
CTAGCTCA | 0.109
AGGAGCAA | -0.119
CTGGTCGA | -0.255
AATTCGAA | 0.13

Sequence | PBM E-score
GATAGTTA | 0.0383
ACGGTTTC | 0.0284
GCACATAC | -0.219
ACGTCTCA | 0.144
CACGTGAG | -0.0345
CCGCAAAG | 0.117
GCCCGATA | -0.175
CGTAGTAA | 0.0543
ACAGACGA | 0.104
AATGCGAT | 0.102
AATCCAGG | 0.21
TCCGAGCA | 0.0777
GAAGGCAA | 0.0388
AAGATATG | 0.158
ACCTAGCA | 0.103
CCAAAGGC | -0.266
GCTATGAC | -0.0998
AGCCAATC | -0.141
ACGTCAGC | 0.129
CCGTCACG | -0.0676
GAGTGGAA | -0.181
AGGGCCAA | -0.219
ACCCGCAC | 0.141
TGATTGCA | 0.156
AGGACTCG | -0.219

As entered above:
PBM E-score, AATCCAGG reads 0.21
PBM E-score, ACGTCTCA reads 0.144

An excerpt of the results above, as a working copy:
Sequence | PBM E-score
AGCCAATC | -0.141
ACGTCAGC | 0.129
CCGTCACG | -0.0676
GAGTGGAA | -0.181
AGGGCCAA | -0.219
ACCCGCAC | 0.141

(list continues)

Sequence | PBM E-score
GACAAATA | 0.21
CAGGGATC | 0.238
AAATCCCG | 0.0585
AGGATTGC | -0.172
CAGACGGG | -0.0638
ATGATATC | 0.0898
CGCCGCTC | 0.0612
CCCCACGC | -0.127
ATGAGCCA | -0.0105
GGATTAAC | -0.114
CCCGCCTA | 0.0142
AATAAGAC | -0.123
CGTCTAGC | -0.11
AAGCCCGA | -0.122
ATCGACCA | -0.121
CGAGAATC | 0.0501
ACACAATC | -0.0733
TGTCAGAA | -0.17
ATGCAACC | 0.117
ACGTTGAA | 0.0955
GCTACAAA | 0.119
CATGCACG | -0.0976
